Source: patent publication US10070648B2, “Photodynamic insecticides” (ROSALIND FRANKLIN UNIVERSITY OF MEDICINE AND SCIENCE, priority 2016, dated 2018)

Experiments:
[1] = system: Phlebotomus duboscqi female and male adult flies; assay: Uptake by adult sand flies fed dye + sucrose solution; format: in vivo; details: 5% sucrose solution and 500 μL of 5 mg/mL dye in cotton ball, ~20 hrs in the dark
[2] = system: Aedes albopictus clone C6/36 (ATCC CRL-1660); assay: Uptake of PS by mosquito cells in vitro and photo-inactivation; details: exposed overnight in the dark
Method: (§1) The insect cells were exposed to both dyes overnight and illuminated with white light under conditions similar to those described for mammalian and Leishmania cells. Images were captured first under differential interference (DIF) [A] and then under the filter sets for DAPI and Texas red [B]. [C] Chemical structure of cyanosione and rose Bengal.
as §1, with “Uptake of PS was assessed in insect cells, specifically Aedes albopictus clone C6/36 (ATCC CRL-1660). The” for “The”, “cells. […]” for “cells.”

O=C([O-])c1c(Cl)c(Cl)c(Cl)c(Cl)c1-c1c2cc(I)c(=O)c(I)c-2oc2c(I)c([O-])c(I)cc12.[Na+].[Na+] [Rose Bengal]
uptake of dye by sand flies [1]: taken up by the flies of both sexes | dye uptake by cells (fluorescence) [2]: cytoplasmic fluorescence
